{"source": "PubChem BioAssay AID1347426", "about": "(Functional Genomics Laboratory (NCATS/FGL), 2020)", "note": "Screen size: about 31,000 sequences; about 1,400 (4.5%) were called active.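 How the source made its calls: active means median seed-adjusted z-score above 1 or below -1; inactive means the rest.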 The list shows a part of the results."}
{"test": "Novel Modifiers of Survival Motor Neuron (SMN) Protein: Gene Identification via Genome-wide siRNA Screen;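 further: luminescence tracks full-length SMN protein made from the SMN2 reporter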", "conditions": "HEK293T SMN2-luciferase reporter, siRNA knockdown, 72 h; actives lie on both sides", "procedure,_shortened": "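HEK293T cells stably expressing an SMN2 splicing/cDNA-luciferase reporter were reverse-transfected with a druggable-genome siRNA library and read by luminescence at 72 hours; hits defined by MAD score above 1.0 or below -1.0.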"}
{"sequence": "GAGACAUUGUAGUGAAGAATT against CDY2A", "median seed-adjusted z-score": "inactive: 0.75"}
{"sequence": "CCAAUUACCUGCUCAGAGATT against POU6F1", "median seed-adjusted z-score": "inactive: 0.978"}
{"sequence": "CGACAUGAUCUCCUACUCATT against ABLIM2", "median seed-adjusted z-score": "inactive: -0.26"}
{"sequence": "GCGACCACAUGAGCUCCUATT against P2RY6", "median seed-adjusted z-score": "inactive: 0.00327"}
{"sequence": "UCUUCAUGCUGUCCACCAATT against OXER1", "median seed-adjusted z-score": "inactive: -0.471"}
{"sequence": "GGAUUAGUAGUGACCAUUATT against OLR1", "median seed-adjusted z-score": "inactive: 0"}
{"sequence": "UGAAAGAACUGAUUGAGAATT against NDUFV1", "median seed-adjusted z-score": "inactive: -0.653"}
{"sequence": "GGAACAAUCUGAUUCAACATT against MBNL3", "median seed-adjusted z-score": "inactive: -0.189"}
{"sequence": "GGAGGAGGUGUUUCGCUUUTT against CPOX", "median seed-adjusted z-score": "inactive: -0.135"}
{"sequence": "GACCGGAUCUUAUCGGUGATT against DLG3", "median seed-adjusted z-score": "inactive: -0.317"}
{"sequence": "CGUUUGGUCUCACUCAUAATT against SNX14", "median seed-adjusted z-score": "inactive: 0"}
{"sequence": "CCAUAGAAUUCAAAAUCCUTT against BCL2L14", "median seed-adjusted z-score": "inactive: -0.859"}
{"sequence": "GAACGAGUGUGAAACACUATT against LTBP4", "median seed-adjusted z-score": "inactive: 0.19"}
{"sequence": "CGAGAAAGCCUAUCACGAATT against TUBA8", "median seed-adjusted z-score": "inactive: -0.0453"}
{"sequence": "CACCAAAACGGGAGACAAATT against MMAB", "median seed-adjusted z-score": "inactive: 0"}
{"sequence": "AGUCAGGGUCGGCUUGUGATT against HMGN2", "median seed-adjusted z-score": "inactive: -0.038"}
{"sequence": "GCUUAGGCUUGAUUUCCGATT against SLC30A7", "median seed-adjusted z-score": "inactive: 0.0492"}
{"sequence": "GAAGUUUCCAAGUUAGUGATT against ALB", "median seed-adjusted z-score": "inactive: -0.153"}
{"sequence": "AGGAAGAUGCGGCCAAUAATT against TUBA3C", "median seed-adjusted z-score": "inactive: -0.0806"}
{"sequence": "UGCUCUUCGUGUUCCGCUATT against DERL3", "median seed-adjusted z-score": "inactive: 0.043"}
{"sequence": "GACGAUUUGUAGUUACCUATT against DZIP3", "median seed-adjusted z-score": "inactive: 0.435"}
{"sequence": "GGGCUAGUGUUUUACGUGATT against DYNC1LI2", "median seed-adjusted z-score": "inactive: -0.491"}
{"sequence": "GACAAUAAUCUACUACAUATT against FBXO45", "median seed-adjusted z-score": "inactive: -0.043"}
{"sequence": "GAGUGAAUAAUGAGAAAAATT against HPGD", "median seed-adjusted z-score": "inactive: -0.145"}
{"sequence": "CAUCCAUUUCAGGCAAAUATT against NEK3", "median seed-adjusted z-score": "inactive: 0.118"}
{"sequence": "GGCUUCGUGUCAUUGCAAATT against APOL4", "median seed-adjusted z-score": "inactive: -0.54"}
{"sequence": "GAGCUGCUAUGUUCUAUGATT against IL28RA", "median seed-adjusted z-score": "inactive: 0"}
{"sequence": "GGACAACCAAAAGUCAGAATT against CYP2C8", "median seed-adjusted z-score": "inactive: 0.371"}
{"sequence": "AAUCCGUUGUGGAAUGAAATT against GTF3C5", "median seed-adjusted z-score": "inactive: 0.493"}
{"sequence": "GGACGGGCCUGAAAGCAUUTT against PGPEP1", "median seed-adjusted z-score": "inactive: -0.0356"}
{"sequence": "UCGUUUUUACAGAUGUUAATT against SAP18", "median seed-adjusted z-score": "active: 2.14"}
{"sequence": "GGUUAAAAGUCGGUCCCAATT against SGCG", "median seed-adjusted z-score": "inactive: 0.886"}
{"sequence": "CACCUUCACUGAUACUUUUTT against TRIM39", "median seed-adjusted z-score": "inactive: 0.41"}
{"sequence": "CUAACUUUGUAAUCGAGGATT against RASA2", "median seed-adjusted z-score": "inactive: -0.913"}
{"sequence": "AGAGAUUUCUAUGCCCUCATT against NRBP2", "median seed-adjusted z-score": "inactive: 0.093"}
{"sequence": "GGAGUGCAACAACUGCUCUTT against SCN2B", "median seed-adjusted z-score": "inactive: -0.65"}
{"sequence": "CUAUUGUAAAGGAUGCUAUTT against CSRP2", "median seed-adjusted z-score": "inactive: -0.829"}
{"sequence": "UCAAGUUCCUUAUCUCGGATT against CAND2", "median seed-adjusted z-score": "inactive: 0.0936"}
{"sequence": "GGACGAUUGAAGAAUCCAUTT against SMARCAD1", "median seed-adjusted z-score": "inactive: -0.198"}
{"sequence": "AGUGGAGAGUGUGACCCAATT against PSMA5", "median seed-adjusted z-score": "inactive: -0.824"}
{"sequence": "GCUGUGCAAUCUCAUCGGATT against REEP6", "median seed-adjusted z-score": "inactive: -0.348"}
{"sequence": "GGAAUUCUCUCACGACCAATT against KIF3C", "median seed-adjusted z-score": "inactive: 0.0126"}
{"sequence": "AGAUAUGAAACAUCGGCUATT against RGS4", "median seed-adjusted z-score": "inactive: 0"}
{"sequence": "GCAAUGGGUUUGAUAGGAATT against CLCA2", "median seed-adjusted z-score": "inactive: 0.669"}
{"sequence": "GGACUCUCAUGAGUGCUGATT against ACP2", "median seed-adjusted z-score": "inactive: -0.00569"}
{"sequence": "GGACUAUGCUGAAGUAUCATT against POLR3C", "median seed-adjusted z-score": "inactive: -0.294"}
{"sequence": "GGGCAUCGAUUAUGCUGAATT against GNAT2", "median seed-adjusted z-score": "inactive: 0"}
{"sequence": "ACAAGUUGGUACCAACAAATT against CCL18", "median seed-adjusted z-score": "inactive: 0.169"}
{"sequence": "CCAGGCAAAUAGUGAAGAATT against VAX1", "median seed-adjusted z-score": "inactive: 0.937"}
{"sequence": "GAAGAUUGGUCUCCAGUAATT against FDFT1", "median seed-adjusted z-score": "inactive: -0.143"}
{"sequence": "AGAAUAUCAACGAACUCAATT against PEX14", "median seed-adjusted z-score": "inactive: 0.844"}
{"sequence": "GCAUGUUCCAGAUCUAUCATT against DRD5", "median seed-adjusted z-score": "inactive: -0.18"}
{"sequence": "GAAGAAGACUGCUUUAGUUTT against RG9MTD3", "median seed-adjusted z-score": "inactive: -0.174"}
{"sequence": "GGAAUUGUUGGAUAAAUAUTT against YWHAQ", "median seed-adjusted z-score": "inactive: -0.412"}
{"sequence": "GGUCCUCAGCUACAAGGAATT against CAMP", "median seed-adjusted z-score": "inactive: -0.622"}
{"sequence": "GGAUGAACUCAAUACUAUUTT against OXGR1", "median seed-adjusted z-score": "inactive: -0.0388"}
{"sequence": "CCGCAGACCCGAAAGUGAATT against MARVELD3", "median seed-adjusted z-score": "inactive: -0.021"}
{"sequence": "AUAUGAAACAUACAAGGAATT against RBM8A", "median seed-adjusted z-score": "inactive: 0"}
{"sequence": "GGUCAUUAAUAAUCCUGAUTT against CSGALNACT2", "median seed-adjusted z-score": "inactive: 0.236"}
{"sequence": "GGAGUUUGGUGAUGCGGAATT against BRUNOL6", "median seed-adjusted z-score": "inactive: -0.542"}
{"sequence": "CGCUGGUGGCCGUGUAUUATT against STUB1", "median seed-adjusted z-score": "inactive: 0.202"}
{"sequence": "GGAUAUGCCUUAGAUUACATT against PRTFDC1", "median seed-adjusted z-score": "inactive: 0.493"}
{"sequence": "GGCUCUUACUCACUCAAGATT against ANGPTL2", "median seed-adjusted z-score": "inactive: 0.141"}
{"sequence": "GGAAGAUGAGCAAAAAGAATT against SYT12", "median seed-adjusted z-score": "inactive: -0.329"}
{"sequence": "GCAUGACGACUGAACUGAUTT against MDH1B", "median seed-adjusted z-score": "active: -1.13"}
{"sequence": "CGCUAUGAUCUGUACCACATT against TMEM147", "median seed-adjusted z-score": "inactive: 0.233"}
{"sequence": "UGUCAUCCACAUCAAUGAATT against EPOR", "median seed-adjusted z-score": "inactive: -0.084"}
{"sequence": "GACUCUCUACCAUGGAUUUTT against SLC25A42", "median seed-adjusted z-score": "active: -1.02"}
{"sequence": "CCAUCAUCCUUUUAGCGAUTT against FZD3", "median seed-adjusted z-score": "inactive: -0.0208"}
